Laboratory results: PubChem BioAssay AID504834 (National Center for Advancing Translational Sciences (NCATS), 2011)
In all, about 320,000 compounds went through this assay and about 22,000 (6.9%) were called active. This list was built around the results that the source calls inconclusive (neither active nor inactive); the mix of calls is not that of the screen. Calls come from the whole dose curve; as a rule, active = well fitted inhibition curve with a large enough effect; inconclusive = small, poorly fitted or top-dose-only effect, or another doubt; inactive = no such curve, though single readings can be large or run the other way. Where the call is inconclusive, the potency comes from a doubtful curve fit.

Assay: Primary qHTS for delayed death inhibitors of the malarial parasite plastid, 96 hour incubation
Settings: P. falciparum luciferase reporter growth; series mostly up to 28.7 µM
How it was run: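 96 h incubation, 37 C, 5% CO2, of luciferase-reporter P. falciparum-infected RBCs (2% hematocrit, 0.05% parasitemia final) with test compounds; endpoint luminescence.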
Potency is the fitted concentration of half-maximal effect.

Structure (SMILES)	Potency
O=C(Nc1ccc(O)cc1C(=O)O)c1cccs1	inconclusive: 0.0033 µM [inhibitor, full curve, poor fit]
Cc1nc2nc(SCC(=O)O)nn2c(C)c1Cc1ccccc1Cl	inactive
O=C(CSCc1ccc(F)cc1)NCc1ccc(F)cc1	inactive
COc1ccc(C2(C(=O)NCCCN3CCOCC3)CCOCC2)cc1	inactive
CC(=O)Nc1ccc(S(=O)(=O)NCc2nc(-c3ccccc3Cl)no2)cc1	inactive
NC(N)=NC(N)=Nc1cccc(Cl)c1	active: 10.4 µM
CCN(Cc1ccccc1)C(=O)Cc1ccc(OC)c(S(=O)(=O)N2CCOCC2)c1	inconclusive: 18.5 µM [inhibitor, single point]
COc1ccccc1N(Cc1cc(=O)[nH]c2ccccc12)C(=O)C(C)C	inconclusive: 11.7 µM [inhibitor, single point]
O=C(CC1C(=O)NCCN1Cc1ccoc1)NCCc1ccc(Cl)cc1 (configuration not stated)	inconclusive: 20.8 µM [inhibitor, partial curve, poor fit]
Cc1nc(NC(=O)c2ccccc2)sc1-c1csc(Nc2cccc(F)c2)n1	active: 4.65 µM
CC1(C)CC(CCN(Cc2ccccc2)C(=O)c2ccco2)(c2ccccc2)CCO1 (configuration not stated)	active: 1.85 µM
COc1ccccc1C(=O)Nc1cccc2nc(C)ccc12	inconclusive: 18.5 µM [inhibitor, single point]
Cc1cc(N2CCCC2=O)cc(C)c1S(=O)(=O)NCCOc1ccc(C(C)(C)C)cc1	inconclusive: 18.5 µM [inhibitor, single point]
CC(=O)c1cn(-c2ccc(Cl)cc2)c(=O)n(Cc2ccc(F)cc2)c1=O	inconclusive: 18.5 µM [inhibitor, single point]
CC(NC(=O)C1c2ccccc2Oc2ccccc21)C1CCCO1 (configuration not stated)	inactive
CCN1C(=O)NC(=O)/C(=C\c2cn(CC(=O)N3CCCCC3)c3ccccc23)C1=O	inconclusive: 13.1 µM [inhibitor, single point]
O=C(CNCC1CCCO1)N1CCCCCC1 (configuration not stated)	inactive
O=C(O)c1ccc(N/N=C/c2c(F)cccc2Cl)cc1	inactive
COc1ccc(CNCc2ccco2)cc1OCc1ccccc1	inactive
CN(C(=O)c1ccc(OC2CCN(Cc3ccccn3)CC2)cc1)C1CCCCC1	inconclusive: 5.86 µM [inhibitor, single point]
Cc1cccc(-c2noc(CN(C(=O)c3c(-c4ccccc4Cl)noc3C)C(C)C)n2)c1	inconclusive: 18.5 µM [inhibitor, single point]
O=C(CCCSc1nc2ccccc2[nH]1)NCc1ccc(Cl)cc1	active: 11.7 µM
Nc1c(-c2ccccc2)c(CSc2nc3ccccc3[nH]2)nn1-c1cccc(Cl)c1	inconclusive: 3.29 µM [inhibitor, partial curve, poor fit]
CCCCN(C(=O)/C=C/c1ccc(OC)cc1)C1CCS(=O)(=O)C1 (configuration not stated)	inconclusive: 3.29 µM [inhibitor, partial curve]

Part of the list above, field by field:
COc1ccc(C2(C(=O)NCCCN3CCOCC3)CCOCC2)cc1
  Potency: inactive
CC(=O)Nc1ccc(S(=O)(=O)NCc2nc(-c3ccccc3Cl)no2)cc1
  Potency: inactive

(more compounds)

Structure (SMILES)	Potency
Cc1cc(C)n2nnnc2c1C#N	active: 13.1 µM
N#Cc1cc2c(=O)n3ccccc3nc2n(Cc2ccco2)c1=NC(=O)c1ccco1	active: 11.7 µM
CCC(CC)c1nnc(NC(=O)CN2C(=O)NC3(CCCC3)C2=O)s1	inactive
O=c1[nH]c(=O)n(-c2ccccc2F)c(O)c1/C=C1\C=Nc2ccccc21	inactive
CC(C)c1ccc(C2C(C#N)=C(N)N3C(=C2C#N)Sc2ccccc23)cc1 (configuration not stated)	inconclusive: 0.828 µM [inhibitor, full curve, poor fit]
COc1ccc(CN2CCN(C(=O)c3cccs3)CC2)cc1	inconclusive: 10.4 µM [inhibitor, single point]
CCCC(c1nnnn1C(C)(C)CC)N1CCN(C(=O)c2ccco2)CC1 (configuration not stated)	inconclusive: 0.586 µM [inhibitor, full curve]
O=[N+]([O-])c1cccc(-c2nc(-c3ccccc3)c(-c3cccs3)[nH]2)c1	inconclusive: 18.5 µM [inhibitor, single point]
CCOc1c(Br)ccc2c1sc1nc[nH]c(=O)c12	active: 9.28 µM
Cc1nc2nc(C)n(-c3ccccc3)c2s1	inconclusive: 10.4 µM [inhibitor, single point]
CC(C)C(CCNC1CCN(C)CC1)c1ccc(Cl)cc1 (configuration not stated)	inconclusive: 1.65 µM [inhibitor, full curve, poor fit]
N#CC1=C(N)N(c2ccccc2)C(c2ccccc2)C1(C#N)C#N (configuration not stated)	inconclusive: 14.7 µM [inhibitor, single point]
COc1cccc(-c2nc3n(n2)C(c2ccccc2Cl)C(C(N)=O)=C(C)N3)c1 (configuration not stated)	inconclusive: 11.7 µM [inhibitor, partial curve]
O=C1Nc2ccccc2C(O)(C(=O)NCc2ccco2)N1c1ccccc1 (configuration not stated)	inconclusive: 0.165 µM [inhibitor, full curve, poor fit]
Nn1cc(-c2ccccc2)nc1SCC(=O)Nc1ccc2c(c1)OCO2	inconclusive: 18.5 µM [inhibitor, partial curve, poor fit]
O=C(Nc1ccccc1F)c1ccc(CN2CCN(c3ccccc3)CC2)cc1	inconclusive: 18.5 µM [inhibitor, single point]
O=C(NCc1ccco1)C1CCCN1C(=O)Nc1cccc(Cl)c1 (configuration not stated)	inactive
O=C1c2ccccc2NC2CCCCC12 (configuration not stated)	inactive
COc1ccc(CCNC(=O)c2cccn2C)cc1	inconclusive: 18.5 µM [inhibitor, single point]
COc1ccc(NC(=O)c2cc3ccccc3o/c2=N\NS(=O)(=O)c2ccc(C)cc2)cc1	inconclusive: 0.928 µM [inhibitor, full curve]
CCOc1ccc(S(=O)(=O)Nc2ccc(C(=O)N/N=C(\C)c3ccc(-n4ccnc4)cc3)cc2)cc1	inconclusive: 9.28 µM [inhibitor, single point]
CN1CCN(c2nc3c(c(=O)n(C)c(=O)n3C)n2Cc2cccc(Br)c2)CC1	inconclusive: 10.4 µM [inhibitor, single point]
CCc1nnc(NC(=O)C2CCCN(c3nc(C)cc(C)n3)C2)s1 (configuration not stated)	active: 4.65 µM
